These results are taken from PubChem BioAssay AID493014 (National Center for Advancing Translational Sciences (NCATS), 2011).

The test can be described thus: qHTS Assay to Find Inhibitors of Chronic Active B-Cell Receptor Signaling. The conditions noted are these: ABC-DLBCL IkBa-CBG/CBR reporter, luminescence ratio (green luciferase fused to IkBa over red control in TMD8 lymphoma cells), 4 h. In a few lines: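 Doxycycline induced both beetle luciferases in TMD8 lymphoma cells; IKK-driven degradation limits the IkappaBalpha-fused green signal, while red luminescence normalises for cell number and nonspecific effects. Compounds tested up to 46 uM, 4 hrs.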

Where [1] appears, read: measured here: CBR red luminescence, cell number.
[2] abbreviates: measured here: IkBa-CBG green luminescence.

Structures are written as SMILES. The list shows a part of the results. These are further read-outs of the screen, such as a control signal, another cell line or another target. No call is given for them. Most of these compounds were active or inconclusive in the main read-out, so they are no random draw. Potencies come from curve fits of mixed quality, noted in brackets.

For `COc1cc2c(=O)c(-c3ccc(O)cc3)coc2cc1OC1OC(CO)C(O)C(O)C1O` (stereo not drawn), the AC50 under setting [1] was 29.1 µM [rising, single point].

Consider `CCCc1cc(=O)oc2c(C)c(OCC(=O)N3CCC(C(=O)O)(c4ccccc4)CC3)ccc12`, for which, under setting [1], the AC50 was 0.708 µM [falling, partial curve, poor fit].

In the case of `CNc1ccc(/C=C(\C#N)C(=O)Nc2ccccn2)cc1[N+](=O)[O-]`, under setting [1], the concentration at half-maximal activity (AC50) was 35.5 µM [rising, single point].

As to `CCN(CC)c1ccc(/C=N/NC(=O)CNC(=O)c2ccc3c(c2)OCCO3)cc1`, the AC50 under setting [1] was 12.6 µM [falling, single point].

In the case of `C/C(=N\NC(=O)c1ccoc1C)c1cccnc1`, the AC50 under setting [1] was 25.9 µM [falling, single point].

For the compound `C/C(N)=C(/C#N)C(=O)CSc1nc2ccc(C)cc2[nH]1`, under setting [1], the half-maximal activity concentration (AC50) is 2 µM [falling, full curve].

Take `CCc1ccc(OCC(=O)NCc2ccco2)c(Br)c1`: under setting [1], the concentration at half-maximal activity (AC50) is 2.24 µM [rising, partial curve, poor fit].

For `CCC(C)Nc1nc(-c2ccc3c(c2)NC(=O)CO3)cs1` (stereo not drawn), under setting [1], the concentration at half-maximal activity (AC50) was 14.1 µM [rising, partial curve, poor fit].

Take `O=C(Nc1ccc(N2CCOCC2)cc1)c1cnsn1`: under setting [1], the AC50 is 14.6 µM [falling, partial curve, poor fit].

Take `Cc1ccc(NC(=O)C(=O)NCc2ccccn2)cc1`: the AC50 under setting [1] is 8.91 µM [falling, partial curve, poor fit].

For the compound `Cc1ccc(NC(=O)C2=CC(c3ccc(C)cc3)=NS(=O)(=O)N2C)cc1`, the half-maximal activity concentration (AC50) under setting [1] is 12.6 µM [falling, partial curve, poor fit].

On to `S=C(NCc1ccc(Cl)cc1Cl)NC1CCCCC1`, for which the AC50 under setting [1] was 23.1 µM [falling, single point].

With `O=c1oc(-c2ccccc2)nc2sc3c(c12)CCC3`, the AC50 under setting [1] is 6.51 µM [falling, partial curve].

Consider `COc1ccccc1OCC(=O)NCC1CCCCC1`, for which, under setting [1], the AC50 was 4.61 µM [rising, partial curve].

Turning to `Cc1ccccc1CC(=O)Nc1cccc(S(=O)(=O)N2CCCC2)c1`, the AC50 under setting [1] is 4.61 µM [rising, single point].

`O=C(NC(=S)Nc1ncccn1)c1ccc(Cl)cc1Cl`: the concentration at half-maximal activity (AC50) under setting [1] is 2.51 µM [falling, full curve].

As to `CC(=O)N(CCc1ccccc1C)Cc1cc2cc(C)ccc2[nH]c1=O`, the half-maximal activity concentration (AC50) under setting [1] is 14.1 µM [rising, single point].

As for `C=CCn1c(C(c2ccccc2)c2ccccc2)n[nH]c1=S`, the AC50 under setting [2] was 23.1 µM [falling, partial curve, poor fit].

On to `CCN(C(=O)COC(=O)c1cccnc1Nc1cccc(C(F)(F)F)c1)C1CCS(=O)(=O)C1` (stereo not drawn), for which the AC50 under setting [1] is 10.3 µM [falling, partial curve, poor fit].

`O=C(NCc1ccccn1)c1cc2cc(Br)ccc2oc1=O`: the AC50 under setting [1] was 16.4 µM [rising, single point].

For `O=C(Nc1nccs1)c1ccc(NC(=O)c2ccco2)cc1`, the concentration at half-maximal activity (AC50) under setting [1] is 16.4 µM [falling, partial curve, poor fit].

Consider `O=C1C2C3C=CC(C3=C(c3ccccc3)c3ccccc3)C2C(=O)N1CCO` (stereo not drawn), for which, under setting [1], the AC50 is 20.6 µM [rising, single point].

In the case of `CCOc1cc(/C=N/Nc2nnc(C)n2N)ccc1OC(C)=O`, the AC50 under setting [1] was 35.5 µM [falling, single point].

On to `O=C(NCc1ccc2c(c1)OCO2)C1CCN(c2ccc(S(=O)(=O)N3CCCC3)cc2)CC1`, for which the AC50 under setting [1] is 23.1 µM [falling, partial curve, poor fit].

With `CC(C)c1cc(=O)oc2c3c4c(cc12)CCCN4CCC3`, the concentration at half-maximal activity (AC50) under setting [1] is 35.5 µM [falling, single point].

Regarding `O=C(COC(=O)Cc1ccc(S(=O)(=O)N2CCOCC2)s1)Nc1ccc([N+](=O)[O-])cc1`, under setting [1], the concentration at half-maximal activity (AC50) was 2.31 µM [rising, full curve].

In the case of `CCc1ccc(OCC(=O)Nc2ccc(-c3cc4ccccc4oc3=O)c(OC)c2)cc1`, under setting [2], the concentration at half-maximal activity (AC50) was 5.17 µM [falling, partial curve, poor fit].

As to `Nc1c(N)c2ccccc2oc1=O`, the AC50 under setting [1] was 0.326 µM [falling, full curve].

With `Cc1nc(N2CCC(C)CC2)c2c(C)c(C(=O)Nc3ccccc3C(F)(F)F)sc2n1`, the AC50 under setting [1] was 2.51 µM [rising, full curve, poor fit].

As for `COc1ccc(-c2c(-c3ccccc3OC)sc3ccccc23)cc1C=O`, the AC50 under setting [1] was 0.0731 µM [rising, full curve, poor fit].

For the compound `Cn1cc(/C=N/NC(=O)c2ccccc2O)c2ccccc21`, the AC50 under setting [1] was 10 µM [falling, partial curve].

Turning to `CC(=O)c1ccc2noc(-c3ccc(C)cc3)c2c1`, the half-maximal activity concentration (AC50) under setting [1] is 12.6 µM [falling, single point].

In the case of `O=C(Nc1ccc(S(=O)(=O)N2CCCCC2)cc1)c1ccc(CN2CCOCC2)cc1`, the half-maximal activity concentration (AC50) under setting [1] is 18.4 µM [falling, partial curve, poor fit].

Turning to `O=C1NC(N2CCOCC2)=N/C1=C/c1ccc2c(c1)OCO2`, the AC50 under setting [1] was 22.4 µM [falling, single point].

Take `Cc1ccc(S(=O)(=O)Nc2cc(C(C(=O)OC(C)C)C(=O)C(F)(F)F)c(O)c3ccccc23)c(C)c1` (stereo not drawn): the half-maximal activity concentration (AC50) under setting [1] is 0.259 µM [falling, full curve, poor fit].

Consider `Nc1c(C(=O)N/N=C/c2cccnc2)oc2nc(-c3ccccc3)cc(-c3ccco3)c12`, for which, under setting [1], the AC50 was 20 µM [falling, partial curve, poor fit].

Regarding `CCCS(=O)(=O)N1CCN(c2ccccc2F)CC1`, under setting [1], the half-maximal activity concentration (AC50) was 16.4 µM [falling, partial curve, poor fit].

Consider `CCOC(=O)CSc1nc(=O)n2ccc(C)cc2n1`, for which the half-maximal activity concentration (AC50) under setting [1] was 31.6 µM [rising, single point].

Take `COc1ccc(NC(=O)c2[nH]ncc2[N+](=O)[O-])cc1`: under setting [1], the AC50 is 15.8 µM [falling, single point].

On to `COc1ccc(-c2nnn(CCC(=O)O)n2)cc1`, for which the AC50 under setting [1] is 20.6 µM [falling, partial curve, poor fit].

Turning to `CCOC(=O)c1c(C)[nH]c(C)c1S(=O)(=O)N1CCN(c2ccc([N+](=O)[O-])cc2)CC1`, the concentration at half-maximal activity (AC50) by setting is: under setting [1], 20 µM [rising, partial curve, poor fit]; under setting [2], 15.8 µM [falling, partial curve, poor fit].

Consider `Cc1ccc(CNC(=O)CN(c2ccc(C)cc2)S(=O)(=O)c2c(C)n[nH]c2C)cc1`, for which the AC50 under setting [1] was 25.1 µM [falling, single point].

For `COCCOC(=O)c1sc(=S)n(CCOC)c1N`, the AC50 under setting [2] was 35.5 µM [falling, single point].

As for `COCCNC(=O)C(=O)Nc1ccc(Br)cc1`, the AC50 under setting [1] was 14.6 µM [falling, single point].

Turning to `COc1ccc(/C=C/C(=O)c2ccc3c(c2)OCO3)cc1OC`, under setting [1], the AC50 was 16.4 µM [falling, single point].

Regarding `CCN(CC)S(=O)(=O)c1cccc(NC(=O)C2SC(=Nc3ccc(C)cc3C)C(C(=O)NC(C)COC)=C2N)c1` (stereo not drawn), under setting [1], the concentration at half-maximal activity (AC50) is 29.1 µM [falling, single point].

In the case of `Cc1ccc(O)c(C(=O)c2cnn(C(=O)Cc3csc(C)n3)c2)c1`, under setting [1], the concentration at half-maximal activity (AC50) is 35.5 µM [rising, single point].

`c1ccc2oc(C3=NNC(=NC4CC4)SC3)cc2c1`: the AC50 under setting [1] is 11.6 µM [falling, partial curve] and the half-maximal activity concentration (AC50) under setting [2] is 29.1 µM [falling, single point].

Take `COc1ccc(C(=O)NC(=S)NCCO)cc1Br`: the AC50 under setting [1] is 35.5 µM [falling, single point].

Regarding `COc1cccc(/C=N/NC(=O)CSc2ccccc2C)c1OC`, the half-maximal activity concentration (AC50) under setting [1] is 1.64 µM [rising, full curve, poor fit].

Take `CCCCn1[nH]c(-c2ccccc2)cc1=O`: the concentration at half-maximal activity (AC50) under setting [1] is 29.1 µM [rising, single point] and the concentration at half-maximal activity (AC50) under setting [2] was 29.1 µM [falling, single point].

Turning to `Cc1[nH]n(C(N)=S)c(=O)c1N=Nc1ccc(S(=O)(=O)N2CCCCCC2)cc1`, under setting [1], the AC50 was 29.1 µM [rising, single point].

On to `O=C(CCC(=O)c1cccs1)Nc1ccc(F)c(F)c1F`, for which the half-maximal activity concentration (AC50) under setting [1] is 16.4 µM [falling, partial curve].

As for `O=C(Nc1ccc(Br)cc1)c1cccc(OC(=S)N2CCOCC2)c1`, under setting [1], the concentration at half-maximal activity (AC50) is 12.6 µM [falling, partial curve, poor fit].

Consider `CN(c1ccccc1)c1ncnc2c1cnn2C`, for which the AC50 under setting [1] is 0.501 µM [rising, full curve, poor fit].

On to `CCOc1cc(/C=C/c2cc(C(=O)O)c3ccccc3n2)ccc1O`, for which the AC50 under setting [1] was 4.11 µM [falling, full curve].

With `COc1cc2cc(Br)cc(Br)c2nc1C`, the AC50 under setting [1] was 16.4 µM [rising, partial curve].

Turning to `COc1ccc(/C=C(/CC(=O)NCc2ccc(Cl)cc2)c2nc3ccccc3s2)cc1`, the AC50 under setting [1] was 2.91 µM [rising, partial curve, poor fit].

Turning to `CC(C)(C)c1ccc(-c2nnc3sc(-c4ccccn4)nn23)cc1`, under setting [1], the AC50 was 12.6 µM [falling, single point].

For the compound `C=CCn1c(SCC(=O)Nc2nc(C)cs2)nnc1C(C)NC(=O)c1ccccc1Cl` (stereo not drawn), the half-maximal activity concentration (AC50) reads like this: under setting [1], 13 µM [falling, partial curve, poor fit]; under setting [2], 4.61 µM [rising, partial curve, poor fit].

As to `CCOC(=O)C1=C(COc2ccccc2)NC(=O)NC1c1ccc(Br)cc1` (stereo not drawn), the AC50 under setting [1] was 35.5 µM [falling, single point].

For `CCc1noc(C)c1C(=O)NNC(=O)c1ccccc1Cl`, the half-maximal activity concentration (AC50) under setting [1] was 1.3 µM [rising, full curve].

For the compound `O=C(O)C1=CC[C@@H](c2ccc(Cl)cc2)N(S(=O)(=O)c2ccc(Cl)cc2)[C@H]1c1ccccc1`, under setting [2], the AC50 is 7.31 µM [rising, partial curve, poor fit].

With `CC1NC(=O)NC1CCCCCC(=O)NCCc1ccccc1` (stereo not drawn), under setting [1], the half-maximal activity concentration (AC50) was 20.6 µM [rising, single point].
